Measured data: PubChem BioAssay AID1259254 (NCATS, 2017)
In all, the deposit lists about 59,000 reagents; shown is an unselected part. Over the whole deposit, about 1,550 (2.6%) are marked active. 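G2 share is only a proxy for re-replication; each gene was hit by three separate siRNAs, and active genes were retested.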 A number with no mark means an inactive call. The numbers tell different reagents against one gene apart. Further read-outs or replicates are left out here. Not given: the amount of reagent.

- Test: 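Finding genes that stop cells copying their DNA twice in one cycle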 (primary screen)
- Cell system: human HCT116 colorectal cancer cells
- Reagent: single siRNA against human genes
- Time to read-out: 3 days
- Measured: 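Imaged Hoechst DNA stain sorts each cell into a cycle phase by DNA amount; per plate, G2 fraction set to 0% for non-targeting and 100% for GMNN siRNA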
- Reading the numbers: G2 robust z-score and G2 cells, % of GMNN control: higher = more G2 cells, more excess DNA replication
- Rule for the call: 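Active siRNAs have a G2 robust z of 5 or more median absolute deviations over the median, which in these data means about 38% or higher of GMNN control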

For GRIK2 #1, how do the results read?
G2 robust z-score: 0.413; G2 cells, % of GMNN control: 5.88

With GRIK2 #2, what was measured?
G2 robust z-score: -1.62; G2 cells, % of GMNN control: -8.41

For GRIK2 #3, how do the results read?
G2 robust z-score: -1.1; G2 cells, % of GMNN control: -4.75

With VAC14 #1, what does the deposit list?
G2 robust z-score: -0.951; G2 cells, % of GMNN control: -3.72

How did the screen score VAC14 #2?
G2 robust z-score: 0.0366; G2 cells, % of GMNN control: 3.23

Which result is listed for VAC14 #3?
G2 robust z-score: -1.41; G2 cells, % of GMNN control: -6.99

Part of the list above, reduced to “G2 robust z-score”.
GRIK2 #2 = -1.62
GRIK2 #3 = -1.1

Continued:
What did the screen give for EBF4 #1?
G2 robust z-score: -0.424; G2 cells, % of GMNN control: -0.0177

How did the screen score EBF4 #2?
G2 robust z-score: -0.262; G2 cells, % of GMNN control: 1.12

For EBF4 #3, how do the results read?
G2 robust z-score: 1.62; G2 cells, % of GMNN control: 14.4

What did the screen give for ELL3 #1?
G2 robust z-score: -0.785; G2 cells, % of GMNN control: -2.56

With ELL3 #2, what does the deposit list?
G2 robust z-score: -0.896; G2 cells, % of GMNN control: -3.34

What is on record for ELL3 #3?
G2 robust z-score: -0.887; G2 cells, % of GMNN control: -3.28
